# Results published in PubChem BioAssay AID2685 (National Center for Advancing Translational Sciences (NCATS), 2010).
# Among all 320,000 compounds or so, about 2,100 (0.66%) were called active. The inconclusive results got no clear call from the source; some entries with a clear call stand among them for comparison. The call rests on the fitted dose curve; in most records, active means well fitted inhibition curve with a large enough effect in the signal ratio, with a control signal flat (not every such curve was filed as active); inconclusive means small, poorly fitted or top-dose-only effect, or effect the other way, or a change in a side signal; inactive means flat fitted curve, though single readings scatter; the % refers to the signal ratio. A potency beside an inconclusive call is a rough fit, not a confirmed value.
# Test: qHTS Assay for Lipid Storage Modulators in Drosophila S3 Cells
# Details: BODIPY lipid droplet fluorescence, 18-24 h, cells fed with added oleic acid; lipid storage change, negative = inhibition: at 46.1 µM (top of the series) unless noted
# How it was run: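 Laser-scanning cytometry quantifies lipid droplet accumulation (500–530 nm total intensity; droplet/cell object ratio) in oleic acid-fed (400 uM added) Drosophila S3 cells treated with a concentration series. 20 uM Triacsin C defined 100% inhibition.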
# On the % scale 0 is the no-effect control and ±100 the full control effect; potency means the concentration at half of the fitted maximal effect.
SMILES,"lipid storage change, negative = inhibition",Potency
COc1ccc(S(=O)(=O)N2CCN(c3ncccn3)CC2)cc1OC,inconclusive: 26.5%,
Cc1c(C)c(C)c(S(=O)(=O)NCCC(=O)N2CCN(Cc3ccc(C#N)cc3)CC2)c(C)c1C,inactive,
Cc1ccc2cc(C#N)c(SCc3nnc(-c4ccccc4[N+](=O)[O-])o3)nc2c1,,"inconclusive: 1.46 µM [falling, partial curve, poor fit]"
O=C(Nc1cc(Sc2ccccn2)cc([N+](=O)[O-])c1)c1cccc(F)c1,,"inconclusive: 14.6 µM [activator, partial curve, poor fit]"
Cn1nnnc1NCc1cccc(Cl)c1Cl,inconclusive: -36.8%,
COCC(C)n1c(C)cc(C(=O)COC(=O)c2nc3nc(C)cc(C)n3n2)c1C (centres undefined),inconclusive: 20.2%,
CCn1c(SCC(=O)Nc2ccccc2C)nc2nc3c(cc2c1=O)COC(C)(C)C3,inconclusive: 5.76%,
CCC(Oc1ccccc1C)C(=O)N1CCCN(C)CC1 (centres undefined),inconclusive: 126%,
COc1cc(-c2nnc(SCc3ccccc3Cl)o2)cc(OC)c1OC,,"inconclusive: 2.59 µM [activator, full curve, poor fit]"
COc1cccc2oc3cc(C#Cc4ccccn4)ccc3c(=O)c12,,active: 18.4 µM
CN1C(=O)C2(c3ccccc31)N(C)CC(c1ccccc1)C21SC(=S)N(Cc2ccco2)C1=O (centres undefined),inconclusive: 9.81%,
O=C(COc1ccc2ccccc2c1)NNC(=O)C(=O)Nc1ccccc1,,"inconclusive: 0.82 µM [activator, single point]"
COc1ccc(C(=O)NCC(=O)OCc2ccc(Br)cc2)cc1,,"inconclusive: 5.17 µM [activator, single point]"
O=C(NCCC1CCCCN1S(=O)(=O)c1ccc(Cl)cc1)C(=O)NCc1cccnc1 (centres undefined),inconclusive: -100%,
O=C(COc1ccc(Cl)cc1)NCCCNC(=O)c1ccncc1,inconclusive: -51.1%,
N#Cc1ccccc1S(=O)(=O)c1ccccc1C(=O)Nc1ccccc1,,"inconclusive: 1.84 µM [activator, full curve]"
O=C(CNc1ccccc1)N/N=C/c1c[nH]c2ccccc12,,"inconclusive: 11.6 µM [activator, partial curve, poor fit]"
O=C(O)c1cccc(NC(=O)c2ccc(S(=O)(=O)c3ccccc3)cc2)c1,inconclusive: -35.8%,
CCN(CC)c1ccc(C(=O)NNC(=O)CNC(=O)c2ccco2)cc1,inconclusive,
COc1ccc(C(=O)N/N=C\c2ccc(OC)c(COc3ccccc3Br)c2)c(OC)c1,inconclusive: -100%,
O=C(NCCCc1ccccc1)c1cccs1,inconclusive: 22.1%,
Cc1ccc(-n2cccc2/C=C2/C(=N)N3C(=NC2=O)SN=C3S(C)(=O)=O)cc1Cl,inconclusive: 14.4%,
N#Cc1cccc(NC(=O)COC(=O)C2CCC2)c1,inconclusive: -15.8%,
CCCCOC(=O)Nc1sc2nc(C)cc(C)c2c1-n1cccc1,,"inconclusive: 23.1 µM [falling, single point]"
O=C(CCn1c(=O)oc2cc(Cl)ccc21)Nc1ccc(O)cc1,,"inconclusive: 29.1 µM [activator, single point]"

# 2 successive records already listed:
SMILES,"lipid storage change, negative = inhibition",Potency
COc1cc(-c2nnc(SCc3ccccc3Cl)o2)cc(OC)c1OC,,"inconclusive: 2.59 µM [activator, full curve, poor fit]"
COc1cccc2oc3cc(C#Cc4ccccn4)ccc3c(=O)c12,,active: 18.4 µM

# Next compounds:

SMILES,"lipid storage change, negative = inhibition",Potency
COc1cccc(N/N=C/c2cccc(Br)c2O)c1,inconclusive: -1.32%,
CSc1ccccc1C(=O)N(C)Cc1ccccc1,inconclusive: 1.67%,
Cc1cc(Br)ccc1NC(=O)C1CSC2(C)CCC(=O)N12 (centres undefined),,"inconclusive: 29.1 µM [activator, single point]"
COc1ccccc1/C=C1\SC(=S)N(CCC(=O)N2CCN(C)CC2)C1=O,,"inconclusive: 0.517 µM [falling, partial curve, poor fit]"
CCc1ccc(C(=O)NCc2ccc(Cl)cc2Cl)cc1,inconclusive: -22.9%,
CCC(Sc1nc2cc3c(cc2c(=O)n1Cc1ccco1)OCO3)C(=O)Nc1ccccc1OC (centres undefined),,"inconclusive: 6.51 µM [activator, single point]"
Cc1cccc(OCc2nnc(SC(C)C(=O)O)n2-c2ccccc2)c1 (centres undefined),inconclusive: -53.9%,
Cc1cc(C)n(CCNS(=O)(=O)c2ccc(Cl)cc2)n1,,"inconclusive: 29.1 µM [activator, partial curve]"
O=C(Nc1ccc2c(c1)OCCO2)c1ccc(Cl)c([N+](=O)[O-])c1,,active: 16.4 µM
Cc1ccc(C(=O)N2CCN(S(=O)(=O)c3ccccc3)CC2)s1,inconclusive,
Cc1ccc(NS(=O)(=O)c2ccc(C(=O)NCc3cccnc3)cc2)cc1,inconclusive: -27.1%,
COc1ccc(CNc2nc3c(c(=O)[nH]c(=O)n3C)n2Cc2ccccc2C)cc1,,"inconclusive: 14.6 µM [activator, partial curve, poor fit]"
CCNC(=S)N=Nc1c(O)n(Cc2ccc(Cl)cc2)c2ccccc12,inconclusive: 6.76%,
Cc1ccc2oc(C(=O)N(C)Cc3ccc(C)o3)c(C)c2c1,,"inconclusive: 25.9 µM [falling, single point]"
COc1cc(OC)c(C(=O)Nc2ccc(N(C)C)cc2)cc1OC,inconclusive: 22.8%,
O=[N+]([O-])c1cc(Cl)cc(/C=N/n2cnnc2)c1O,inconclusive: -26.5%,
O=C1C(Cl)=C(NC2CCCCC2)C(=O)N1c1ccc(Cl)cc1,inconclusive: 8.42%,
COC(=O)c1ccc(OC(=O)CCS(=O)(=O)c2ccc(C)cc2)cc1,inconclusive: -5.38%,
O=S1(=O)CCOCCCN1Cc1ccc(Cl)cc1,inconclusive: 23.2%,
Cc1cc(C(F)F)n2ncc(C(=O)NCCc3ccccc3Cl)c2n1,,"inconclusive: 11.6 µM [activator, partial curve]"
Cc1ccc(/C=C/C(=O)O)cc1S(=O)(=O)NCc1cccnc1,inconclusive: 20.5%,
Cc1ccc(C2CN(CCC(N)=O)C(=O)CO2)cc1 (centres undefined),inconclusive: -22%,
COc1ccc(NC(=O)c2cccc3c2C(=O)N(C2CCCCC2)C3)cc1,inconclusive: -24.2%,
Cc1nc2c(ccc3c2ccc2nc(C)sc23)s1,inconclusive: 4.92%,
